Results are given in words; binding and its absence hold for the method and conditions named. Binding seen in cells or lysates may run through a third protein. These calls come from enrichment with a bait or labelling near it, and not all partners need be listed. Sequences can lack the tags named with a protein.
T1: RASSF10-EYFP (human) (UniProt A6NK89)
T1 sequence: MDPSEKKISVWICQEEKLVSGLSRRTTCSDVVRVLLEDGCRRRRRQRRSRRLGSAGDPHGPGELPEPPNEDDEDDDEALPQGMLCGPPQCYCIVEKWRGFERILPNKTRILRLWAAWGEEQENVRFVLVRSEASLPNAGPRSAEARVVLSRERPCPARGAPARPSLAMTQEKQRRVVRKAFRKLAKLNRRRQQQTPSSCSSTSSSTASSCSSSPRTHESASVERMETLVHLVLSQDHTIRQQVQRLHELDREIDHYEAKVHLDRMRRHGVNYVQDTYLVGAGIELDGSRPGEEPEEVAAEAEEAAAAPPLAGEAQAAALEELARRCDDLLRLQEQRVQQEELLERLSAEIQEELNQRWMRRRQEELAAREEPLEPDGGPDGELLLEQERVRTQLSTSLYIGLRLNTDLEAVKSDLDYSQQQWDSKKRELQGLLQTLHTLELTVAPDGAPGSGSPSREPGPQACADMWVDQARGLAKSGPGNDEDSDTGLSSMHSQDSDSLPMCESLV

Amino acid sequences for entries named in this document (tags omitted). Residues count along the entry.
UniProt Q12923: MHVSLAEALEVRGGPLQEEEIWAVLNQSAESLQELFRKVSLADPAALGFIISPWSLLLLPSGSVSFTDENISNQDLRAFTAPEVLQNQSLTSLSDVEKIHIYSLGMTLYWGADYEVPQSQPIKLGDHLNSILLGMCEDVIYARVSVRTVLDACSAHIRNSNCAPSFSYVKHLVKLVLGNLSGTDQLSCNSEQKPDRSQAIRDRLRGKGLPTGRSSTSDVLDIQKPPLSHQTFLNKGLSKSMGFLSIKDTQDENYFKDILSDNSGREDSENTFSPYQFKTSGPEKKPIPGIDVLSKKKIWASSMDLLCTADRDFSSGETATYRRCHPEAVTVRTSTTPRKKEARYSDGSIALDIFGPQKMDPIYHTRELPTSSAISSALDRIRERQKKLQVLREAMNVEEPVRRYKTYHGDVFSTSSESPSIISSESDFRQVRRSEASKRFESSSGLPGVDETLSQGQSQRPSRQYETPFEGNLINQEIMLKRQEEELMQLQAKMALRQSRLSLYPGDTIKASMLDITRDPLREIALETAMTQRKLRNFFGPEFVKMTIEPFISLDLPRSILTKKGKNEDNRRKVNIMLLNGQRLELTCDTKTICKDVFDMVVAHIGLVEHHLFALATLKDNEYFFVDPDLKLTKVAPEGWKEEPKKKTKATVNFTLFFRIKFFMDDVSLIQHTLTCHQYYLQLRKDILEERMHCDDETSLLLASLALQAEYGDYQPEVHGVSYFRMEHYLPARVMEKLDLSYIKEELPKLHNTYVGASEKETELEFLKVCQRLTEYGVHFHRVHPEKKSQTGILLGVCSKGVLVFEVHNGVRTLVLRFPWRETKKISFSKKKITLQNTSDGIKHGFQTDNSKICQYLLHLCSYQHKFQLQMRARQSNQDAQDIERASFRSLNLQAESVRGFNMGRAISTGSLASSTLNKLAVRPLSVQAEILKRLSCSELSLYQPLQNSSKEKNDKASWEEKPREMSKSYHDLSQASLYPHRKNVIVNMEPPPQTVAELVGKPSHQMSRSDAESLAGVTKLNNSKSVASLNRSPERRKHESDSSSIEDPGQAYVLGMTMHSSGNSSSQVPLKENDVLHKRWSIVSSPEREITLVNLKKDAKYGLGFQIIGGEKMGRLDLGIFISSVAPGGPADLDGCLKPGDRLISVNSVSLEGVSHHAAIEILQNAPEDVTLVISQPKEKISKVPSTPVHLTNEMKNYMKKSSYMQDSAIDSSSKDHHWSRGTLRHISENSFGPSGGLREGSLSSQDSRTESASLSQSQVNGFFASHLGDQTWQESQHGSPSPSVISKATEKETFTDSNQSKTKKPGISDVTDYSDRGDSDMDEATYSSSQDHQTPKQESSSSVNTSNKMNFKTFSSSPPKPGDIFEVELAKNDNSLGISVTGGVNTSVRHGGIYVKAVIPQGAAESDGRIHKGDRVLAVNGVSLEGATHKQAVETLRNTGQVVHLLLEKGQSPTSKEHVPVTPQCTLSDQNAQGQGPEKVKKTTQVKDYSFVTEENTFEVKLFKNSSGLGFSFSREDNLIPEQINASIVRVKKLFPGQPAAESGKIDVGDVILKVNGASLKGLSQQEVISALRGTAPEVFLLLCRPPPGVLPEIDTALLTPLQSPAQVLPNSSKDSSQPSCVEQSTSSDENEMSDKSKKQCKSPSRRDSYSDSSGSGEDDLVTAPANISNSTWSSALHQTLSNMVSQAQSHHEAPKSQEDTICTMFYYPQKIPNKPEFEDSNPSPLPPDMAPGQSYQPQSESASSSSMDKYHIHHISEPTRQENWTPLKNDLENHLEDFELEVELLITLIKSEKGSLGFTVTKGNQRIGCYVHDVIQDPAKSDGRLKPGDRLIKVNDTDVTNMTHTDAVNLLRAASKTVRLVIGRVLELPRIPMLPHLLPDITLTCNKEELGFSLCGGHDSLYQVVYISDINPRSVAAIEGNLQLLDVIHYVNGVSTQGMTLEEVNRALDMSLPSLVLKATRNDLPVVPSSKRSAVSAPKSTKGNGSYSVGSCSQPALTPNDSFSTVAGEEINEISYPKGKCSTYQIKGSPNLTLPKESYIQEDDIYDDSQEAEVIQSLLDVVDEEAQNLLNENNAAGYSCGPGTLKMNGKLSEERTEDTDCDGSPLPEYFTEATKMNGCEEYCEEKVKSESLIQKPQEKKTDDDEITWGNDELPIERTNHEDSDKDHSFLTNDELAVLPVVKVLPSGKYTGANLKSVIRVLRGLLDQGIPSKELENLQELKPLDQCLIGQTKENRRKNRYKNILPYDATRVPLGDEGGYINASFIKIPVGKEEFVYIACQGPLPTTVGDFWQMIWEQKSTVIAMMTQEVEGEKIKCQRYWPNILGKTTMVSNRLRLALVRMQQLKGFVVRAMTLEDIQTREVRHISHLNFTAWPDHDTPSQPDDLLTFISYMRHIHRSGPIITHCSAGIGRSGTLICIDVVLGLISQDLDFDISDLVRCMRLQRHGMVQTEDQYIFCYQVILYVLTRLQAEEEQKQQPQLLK
UniProt P34741, residues 19-201: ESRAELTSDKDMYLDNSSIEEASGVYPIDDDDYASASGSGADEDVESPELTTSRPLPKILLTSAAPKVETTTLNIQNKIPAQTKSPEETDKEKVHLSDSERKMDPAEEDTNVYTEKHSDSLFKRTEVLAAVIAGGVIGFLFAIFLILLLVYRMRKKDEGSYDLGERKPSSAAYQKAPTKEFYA
UniProt Q9UKB1: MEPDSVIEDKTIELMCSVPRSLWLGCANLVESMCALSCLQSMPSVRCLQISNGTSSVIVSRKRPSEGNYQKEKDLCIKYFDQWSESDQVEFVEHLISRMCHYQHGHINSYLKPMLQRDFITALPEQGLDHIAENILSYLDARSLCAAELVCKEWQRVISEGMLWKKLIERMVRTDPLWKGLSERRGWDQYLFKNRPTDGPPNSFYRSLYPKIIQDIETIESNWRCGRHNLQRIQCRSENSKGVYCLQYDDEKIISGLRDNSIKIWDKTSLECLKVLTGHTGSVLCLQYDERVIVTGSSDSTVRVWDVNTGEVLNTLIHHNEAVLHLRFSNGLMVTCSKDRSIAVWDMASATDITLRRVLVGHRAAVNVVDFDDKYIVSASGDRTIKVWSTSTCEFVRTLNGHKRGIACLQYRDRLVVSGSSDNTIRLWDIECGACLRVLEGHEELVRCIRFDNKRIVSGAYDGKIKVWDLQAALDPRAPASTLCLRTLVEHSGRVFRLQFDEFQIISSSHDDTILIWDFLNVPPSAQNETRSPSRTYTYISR
UniProt P62136: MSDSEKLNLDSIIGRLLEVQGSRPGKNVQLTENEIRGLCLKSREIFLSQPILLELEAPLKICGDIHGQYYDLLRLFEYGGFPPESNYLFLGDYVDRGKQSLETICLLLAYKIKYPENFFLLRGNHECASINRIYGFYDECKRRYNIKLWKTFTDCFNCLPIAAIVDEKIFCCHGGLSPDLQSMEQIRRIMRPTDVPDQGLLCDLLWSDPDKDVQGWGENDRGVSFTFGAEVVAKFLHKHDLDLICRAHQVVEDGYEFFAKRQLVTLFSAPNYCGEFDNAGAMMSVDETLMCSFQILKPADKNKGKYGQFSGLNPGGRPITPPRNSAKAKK


Target: T1, RASSF10-EYFP (human)
Assay: affinity purification with mass spectrometry; RASSF10-EYFP (EYFP alone as control) overexpressed in HEK cells for 24 h, precipitated from lysates with GFP-Trap; NuPAGE, in-gel trypsin digest, reverse-phase nano-LC with ESI mass spectrometry; biological triplicates, high stringency

binding	Molecule
binds	Protein tyrosine phosphatase, non-receptor type 13 (from UniProt Q12923 1-2485)
binds	Syndecan 2 (from UniProt P34741 19-201)
binds	F-box and WD-40 domain protein 11 (from UniProt Q9UKB1 1-542)
binds	Protein phosphatase 1, catalytic subunit, alpha isoform (from UniProt P62136 1-330)

Target: T1, RASSF10-EYFP (human)
Assay: as above
Remark: another data set of the same source

Molecule	binding
endogenous ASPP1 (HEK) (protein, UniProt Q96KQ4 1-1090) MMPMILTVFLSNNEQILTEVPITPETTCRDVVEFCKEPGEGSCHLAEVWRGNERPIPFDHMMYEHLQKWGPRREEVKFFLRHEDSPTENSEQGGRQTQEQRTQRNVINVPGEKRTENGVGNPRVELTLSELQDMAARQQQQIENQQQMLVAKEQRLHFLKQQERRQQQSISENEKLQKLKERVEAQENKLKKIRAMRGQVDYSKIMNGNLSAEIERFSAMFQEKKQEVQTAILRVDQLSQQLEDLKKGKLNGFQSYNGKLTGPAAVELKRLYQELQIRNQLNQEQNSKLQQQKELLNKRNMEVAMMDKRISELRERLYGKKIQLNRVNGTSSPQSPLSTSGRVAAVGPYIQVPSAGSFPVLGDPIKPQSLSIASNAAHGRSKSANDGNWPTLKQNSSSSVKPVQVAGADWKDPSVEGSVKQGTVSSQPVPFSALGPTEKPGIEIGKVPPPIPGVGKQLPPSYGTYPSPTPLGPGSTSSLERRKEGSLPRPSAGLPSRQRPTLLPATGSTPQPGSSQQIQQRISVPPSPTYPPAGPPAFPAGDSKPELPLTVAIRPFLADKGSRPQSPRKGPQTVNSSSIYSMYLQQATPPKNYQPAAHSALNKSVKAVYGKPVLPSGSTSPSPLPFLHGSLSTGTPQPQPPSESTEKEPEQDGPAAPADGSTVESLPRPLSPTKLTPIVHSPLRYQSDADLEALRRKLANAPRPLKKRSSITEPEGPGGPNIQKLLYQRFNTLAGGMEGTPFYQPSPSQDFMGTLADVDNGNTNANGNLEELPPAQPTAPLPAEPAPSSDANDNELPSPEPEELICPQTTHQTAEPAEDNNNNVATVPTTEQIPSPVAEAPSPGEEQVPPAPLPPASHPPATSTNKRTNLKKPNSERTGHGLRVRFNPLALLLDASLEGEFDLVQRIIYEVEDPSKPNDEGITPLHNAVCAGHHHIVKFLLDFGVNVNAADSDGWTPLHCAASCNSVHLCKQLVESGAAIFASTISDIETAADKCEEMEEGYIQCSQFLYGVQEKLGVMNKGVAYALWDYEAQNSDELSFHEGDALTILRRKDESETEWWWARLGDREGYVPKNLLGLYPRIKPRQRTLA	binds
Pleckstrin Homology Domain Containing, Family A Member 5 (protein, UniProt Q9HAU0 1-1116) MAADLNLEWISLPRSWTYGITRGGRVFFINEEAKSTTWLHPVTGEAVVTGHRRQSTDLPTGWEEAYTFEGARYYINHNERKVTCKHPVTGQPSQDNCIFVVNEQTVATMTSEEKKERPISMINEASNYNVTSDYAVHPMSPVGRTSRASKKVHNFGKRSNSIKRNPNAPVVRRGWLYKQDSTGMKLWKKRWFVLSDLCLFYYRDEKEEGILGSILLPSFQIALLTSEDHINRKYAFKAAHPNMRTYYFCTDTGKEMELWMKAMLDAALVQTEPVKRVDKITSENAPTKETNNIPNHRVLIKPEIQNNQKNKEMSKIEEKKALEAEKYGFQKDGQDRPLTKINSVKLNSLPSEYESGSACPAQTVHYRPINLSSSENKIVNVSLADLRGGNRPNTGPLYTEADRVIQRTNSMQQLEQWIKIQKGRGHEEETRGVISYQTLPRNMPSHRAQIMARYPEGYRTLPRNSKTRPESICSVTPSTHDKTLGPGAEEKRRSMRDDTMWQLYEWQQRQFYNKQSTLPRHSTLSSPKTMVNISDQTMHSIPTSPSHGSIAAYQGYSPQRTYRSEVSSPIQRGDVTIDRRHRAHHPKHVYVPDRRSVPAGLTLQSVSPQSLQGKTLSQDEGRGTLYKYRPEEVDIDAKLSRLCEQDKVVHALEEKLQQLHKEKYTLEQALLSASQEIEMHADNPAAIQTVVLQRDDLQNGLLSTCRELSRATAELERAWREYDKLEYDVTVTRNQMQEQLDHLGEVQTESAGIQRAQIQKELWRIQDVMEGLSKHKQQRGTTEIGMIGSKPFSTVKYKNEGPDYRLYKSEPELTTVAEVDESNGEEKSEPVSEIETSVVKGSHFPVGVVPPRAKSPTPESSTIASYVTLRKTKKMMDLRTERPRSAVEQLCLAESTRPRMTVEEQMERIRRHQQACLREKKKGLNVIGASDQSPLQSPSNLRDNPFRTTQTRRRDDKELDTAIRENDVKPDHETPATEIVQLKETEPQNVDFSKELKKTENISYEMLFEPEPNGVNSVEMMDKERNKDKMPEDVTFSPQDETQTANHKPEEHPEENTKNSVDEQEETVISYESTPEVSRGNQTMAVKSLSPSPESSASPVPSTQPQLTEGSHFMCV	binds
HRAS1-related cluster protein 1 (protein, UniProt Q02833 1-373) MLLGLAAMELKVWVDGIQRVVCGVSEQTTCQEVVIALAQAIGQTGRFVLVQRLREKERQLLPQECPVGAQATCGQFASDVQFVLRRTGPSLAGRPSSDSCPPPERCLIRASLPVKPRAALGCEPRKTLTPEPAPSLSRPGPAAPVTPTPGCCTDLRGLELRVQRNAEELGHEAFWEQELRREQAREREGQARLQALSAATAEHAARLQALDAQARALEAELQLAAEAPGPPSPMASATERLHQDLAVQERQSAEVQGSLALVSRALEAAERALQAQAQELEELNRELRQCNLQQFIQQTGAALPPPPRPDRGPPGTQGPLPPAREESLLGAPSESHAGAQPRPRGGPHDAELLEVAAAPAPEWCPLAAQPQAL	binds

Now from value to molecule:

binding	Molecule
binds	Nidogen 1 (protein, UniProt P14543 29-1247) LSRQELFPFGPGQGDLELEDGDDFVSPALELSGALRFYDRSDIDAVYVTTNGIIATSEPPAKESHPGLFPPTFGAVAPFLADLDTTDGLGKVYYREDLSPSITQRAAECVHRGFPEISFQPSSAVVVTWESVAPYQGPSRDPDQKGKRNTFQAVLASSDSSSYAIFLYPEDGLQFHTTFSKKENNQVPAVVAFSQGSVGFLWKSNGAYNIFANDRESVENLAKSSNSGQQGVWVFEIGSPATTNGVVPADVILGTEDGAEYDDEDEDYDLATTRLGLEDVGTTPFSYKALRRGGADTYSVPSVLSPRRAATERPLGPPTERTRSFQLAVETFHQQHPQVIDVDEVEETGVVFSYNTDSRQTCANNRHQCSVHAECRDYATGFCCSCVAGYTGNGRQCVAEGSPQRVNGKVKGRIFVGSSQVPIVFENTDLHSYVVMNHGRSYTAISTIPETVGYSLLPLAPVGGIIGWMFAVEQDGFKNGFSITGGEFTRQAEVTFVGHPGNLVIKQRFSGIDEHGHLTIDTELEGRVPQIPFGSSVHIEPYTELYHYSTSVITSSSTREYTVTEPERDGASPSRIYTYQWRQTITFQECVHDDSRPALPSTQQLSVDSVFVLYNQEEKILRYALSNSIGPVREGSPDALQNPCYIGTHGCDTNAACRPGPRTQFTCECSIGFRGDGRTCYDIDECSEQPSVCGSHTICNNHPGTFRCECVEGYQFSDEGTCVAVVDQRPINYCETGLHNCDIPQRAQCIYTGGSSYTCSCLPGFSGDGQACQDVDECQPSRCHPDAFCYNTPGSFTCQCKPGYQGDGFRCVPGEVEKTRCQHEREHILGAAGATDPQRPIPPGLFVPECDAHGHYAPTQCHGSTGYCWCVDRDGREVEGTRTRPGMTPPCLSTVAPPIHQGPAVPTAVIPLPPGTHLLFAQTGKIERLPLEGNTMRKTEAKAFLHVPAKVIIGLAFDCVDKMVYWTDITEPSIGRASLHGGEPTTIIRQDLGSPEGIAVDHLGRNIFWTDSNLDRIEVAKLDGTQRRVLFETDLVNPRGIVTDSVRGNLYWTDWNRDNPKIETSYMDGTNRRILVQDDLGLPNGLTFDAFSSQLCWVDAGTNRAECLNPSQPSRRKALEGLQYPFAVTSYGKNLYFTDWKMNSVVALDLAISKETDAFQPHKQTRLYGITTALSQCPQGHNYCSVNNGGCTHLCLATPGSRTCRCPDNTLGVDCIEQK
binds	EH-domain containing 4 (protein, UniProt Q9H223 1-541) MFSWMGRQAGGRERAGGADAVQTVTGGLRSLYLRKVLPLEEAYRFHEFHSPALEDADFENKPMILLVGQYSTGKTTFIRYLLEQDFPGMRIGPEPTTDSFIAVMYGETEGSTPGNALVVDPKKPFRKLSRFGNAFLNRFMCSQLPNQVLKSISVIDSPGILSGEKQRISRGYDFCQVLQWFAERVDRIILLFDAHKLDISDEFSEAIKAFRGQDDKIRVVLNKADQVDTQQLMRVYGALMWSLGKVINTPEVLRVYIGSFWAQPLQNTDNRRLFEAEAQDLFRDIQSLPQKAAVRKLNDLIKRARLAKVHAYIISYLKKEMPSVFGKENKKRELISRLPEIYIQLQREYQISAGDFPEVKAMQEQLENYDFTKFHSLKPKLIEAVDNMLSNKISPLMNLISQEETSTPTQLVQGGAFDGTTEGPFNQGYGEGAKEGADEEEWVVAKDKPVYDELFYTLSPINGKISGVNAKKEMVTSKLPNSVLGKIWKLADCDCDGMLDEEEFALAKHLIKIKLDGYELPSSLPPHLVPPSHRKSLPKAD

— article PMC6966473
